Measurements from paper PMC7691434, “Interaction Analysis of a Plasmodium falciparum PHISTa-like Protein and PfEMP1 Proteins” (Frontiers in Microbiology, 2020).
Results are given in words; binding and its absence hold for the method and conditions named. Binding can be weak; no strength is given.

Target: T1, purified PF3D7_1372300 bait protein (dot blot) (Plasmodium falciparum)
T1 sequence: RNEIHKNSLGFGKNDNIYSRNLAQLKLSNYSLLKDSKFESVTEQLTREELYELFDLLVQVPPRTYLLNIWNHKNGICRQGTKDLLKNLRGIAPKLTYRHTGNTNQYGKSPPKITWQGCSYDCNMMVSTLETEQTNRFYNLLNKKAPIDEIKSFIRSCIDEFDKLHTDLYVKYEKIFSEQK
Experiment: far-Western, overlay or dot blot; purified PF3D7_1372300 bait immobilised on nitrocellulose; total protein from iRBCs added for 1 h (total protein from RBCs as negative control); detected with rat anti-ATS IgG; only the target purified

**Q.** For “PfEMP1 ATS in the total protein sample from iRBCs”, which binding is on record?
**A.** binds
